Experimental data published in the supplement of paper PMC10032668.
± gives the standard deviation of the averaged measurements. Some of the results follow. Only hits are listed; about a third recur on repeated control peptides.

Chains of the proteins cited; added tags and fusions are not shown.
SUPT16H, Q9Y5B9, UniProt Q9Y5B9, whole entry: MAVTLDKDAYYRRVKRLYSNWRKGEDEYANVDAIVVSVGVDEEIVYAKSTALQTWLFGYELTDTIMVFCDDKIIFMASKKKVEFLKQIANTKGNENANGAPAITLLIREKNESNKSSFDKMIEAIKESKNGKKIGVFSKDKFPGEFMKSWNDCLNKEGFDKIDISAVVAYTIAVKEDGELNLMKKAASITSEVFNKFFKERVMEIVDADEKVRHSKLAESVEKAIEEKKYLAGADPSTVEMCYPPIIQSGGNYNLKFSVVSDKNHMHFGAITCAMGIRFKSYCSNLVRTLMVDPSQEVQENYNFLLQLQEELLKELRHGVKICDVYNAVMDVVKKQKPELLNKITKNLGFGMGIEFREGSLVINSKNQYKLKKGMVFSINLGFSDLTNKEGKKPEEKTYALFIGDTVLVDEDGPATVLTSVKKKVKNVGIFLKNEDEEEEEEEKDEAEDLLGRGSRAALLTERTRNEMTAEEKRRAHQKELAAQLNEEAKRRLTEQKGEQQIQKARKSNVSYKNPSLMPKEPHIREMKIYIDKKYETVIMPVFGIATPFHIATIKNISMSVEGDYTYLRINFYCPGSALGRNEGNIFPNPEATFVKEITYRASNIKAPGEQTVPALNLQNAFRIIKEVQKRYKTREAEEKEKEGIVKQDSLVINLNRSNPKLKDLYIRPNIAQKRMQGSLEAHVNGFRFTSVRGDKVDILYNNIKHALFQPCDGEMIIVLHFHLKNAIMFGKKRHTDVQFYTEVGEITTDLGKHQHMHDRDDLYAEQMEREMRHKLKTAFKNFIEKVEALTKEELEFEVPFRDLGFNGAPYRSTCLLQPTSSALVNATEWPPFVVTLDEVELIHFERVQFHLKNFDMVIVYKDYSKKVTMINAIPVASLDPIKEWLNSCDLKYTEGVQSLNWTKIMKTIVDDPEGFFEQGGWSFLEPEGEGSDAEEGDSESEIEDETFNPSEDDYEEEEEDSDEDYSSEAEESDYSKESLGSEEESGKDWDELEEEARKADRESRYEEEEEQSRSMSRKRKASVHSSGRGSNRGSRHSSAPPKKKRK

Columns and labels:
Assay in all cases: PRISMA enrichment of interactor (LFQ) in peptide spot vs all other peptide spots (log2 fold change); higher = stronger / more specific binding of the interactor to the peptide
ANP32B, Q92688 = biological target: ANP32B, Q92688
Experimental: (§1)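 PRISMA: 221 full-length sORF-encoded peptides (3-15 aa), plus SOS1/GLUT1 control peptides, were spot-synthesized on cellulose membranes in triplicate. Membranes were incubated with HEK293T lysate, and bound proteins were identified by LC-MS/MS with LFQ. Enrichment is the log2 fold change versus all other peptide spots; only significant interactors are listed (cutoff c=6, x0=2.8).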

ANP32E, Q9BTT0 = biological target: ANP32E, Q9BTT0
Experimental: as §1

MRPL10, Q7Z7H8 = biological target: MRPL10, Q7Z7H8
Experimental: as §1

NAF1, Q96HR8 = biological target: NAF1, Q96HR8
Experimental: as §1

NAP1L4, Q99733 = biological target: NAP1L4, Q99733
Experimental: as §1

NPM3, O75607 = biological target: NPM3, O75607
Experimental: as §1

NUCKS1, Q9H1E3 = biological target: NUCKS1, Q9H1E3
Experimental: as §1

PPM1G, O15355 = biological target: PPM1G, O15355
Experimental: as §1

PPP1R2, P41236 = biological target: PPP1R2, P41236
Experimental: as §1

PTGES3, Q15185 = biological target: PTGES3, Q15185
Experimental: as §1

SRP19, P09132 = biological target: SRP19, P09132
Experimental: as §1

UBXN7, O94888 = biological target: UBXN7, O94888
Experimental: as §1

WBP11, Q9Y2W2 = biological target: WBP11, Q9Y2W2
Experimental: as §1

WDR43, Q15061 = biological target: WDR43, Q15061
Experimental: as §1

ANP32A, P39687 = biological target: ANP32A, P39687
Experimental: as §1

CTR9, Q6PD62 = biological target: CTR9, Q6PD62
Experimental: as §1

HTATSF1, O43719 = biological target: HTATSF1, O43719
Experimental: as §1

LARP7, Q4G0J3 = biological target: LARP7, Q4G0J3
Experimental: as §1

NAP1L1, P55209 = biological target: NAP1L1, P55209
Experimental: as §1

NOLC1, Q14978 = biological target: NOLC1, Q14978
Experimental: as §1

PAF1, Q8N7H5 = biological target: PAF1, Q8N7H5
Experimental: as §1

PTCD3, Q96EY7 = biological target: PTCD3, Q96EY7
Experimental: as §1

RO60, P10155 = biological target: RO60, P10155
Experimental: as §1

SART3, Q15020 = biological target: SART3, Q15020
Experimental: as §1

SUPT16H, Q9Y5B9 = biological target: SUPT16H, Q9Y5B9
Experimental: as §1

SUPT5H, O00267 = biological target: SUPT5H, O00267
Experimental: as §1

ZRANB2, O95218 = biological target: ZRANB2, O95218
Experimental: as §1

Binder | PRISMA enrichment of interactor (log2) (ANP32B, Q92688) | PRISMA enrichment of interactor (log2) (ANP32E, Q9BTT0) | PRISMA enrichment of interactor (log2) (MRPL10, Q7Z7H8) | PRISMA enrichment of interactor (log2) (NAF1, Q96HR8) | PRISMA enrichment of interactor (log2) (NAP1L4, Q99733) | PRISMA enrichment of interactor (log2) (NPM3, O75607) | PRISMA enrichment of interactor (log2) (NUCKS1, Q9H1E3) | PRISMA enrichment of interactor (log2) (PPM1G, O15355) | PRISMA enrichment of interactor (log2) (PPP1R2, P41236) | PRISMA enrichment of interactor (log2) (PTGES3, Q15185) | PRISMA enrichment of interactor (log2) (SRP19, P09132) | PRISMA enrichment of interactor (log2) (UBXN7, O94888) | PRISMA enrichment of interactor (log2) (WBP11, Q9Y2W2) | PRISMA enrichment of interactor (log2) (WDR43, Q15061) | PRISMA enrichment of interactor (log2) (ANP32A, P39687) | PRISMA enrichment of interactor (log2) (CTR9, Q6PD62) | PRISMA enrichment of interactor (log2) (HTATSF1, O43719) | PRISMA enrichment of interactor (log2) (LARP7, Q4G0J3) | PRISMA enrichment of interactor (log2) (NAP1L1, P55209) | PRISMA enrichment of interactor (log2) (NOLC1, Q14978) | PRISMA enrichment of interactor (log2) (PAF1, Q8N7H5) | PRISMA enrichment of interactor (log2) (PTCD3, Q96EY7) | PRISMA enrichment of interactor (log2) (RO60, P10155) | PRISMA enrichment of interactor (log2) (SART3, Q15020) | PRISMA enrichment of interactor (log2) (SUPT16H, Q9Y5B9) | PRISMA enrichment of interactor (log2) (SUPT5H, O00267) | PRISMA enrichment of interactor (log2) (ZRANB2, O95218)
MIIPKGKQSRQCRR [ASB15] | 6.59 | 6.45 | 5.85 | 3.98 | 5.05 | 6 | 5.01 | 6.26 | 3.94 | 5.89 | 4.91 | 3.99 | 5.03 | 5.55 | – | – | – | – | – | – | – | – | – | – | – | – | –
MRRRRRRM [ABI2] | 7.48 | 8.16 | – | – | 6.65 | 6.8 | – | – | – | – | – | – | 5.69 | – | 6.25 | 6 | 6 | 5.95 | 7.01 ± 0.68 | 5.15 | 5.98 | 5.79 | 5.69 | 5.23 | 7.11 | 5.88 | 5.26
